PubChem BioAssay AID485314 (National Center for Advancing Translational Sciences (NCATS), 2010)
The whole screen tested about 340,000 compounds, of which about 4,500 (1.3%) were called active. Inconclusive means that the source gave no clear call. Such entries were picked first, then a sample of the others. Calls follow the shape of the dose curve; as a rule, active = well fitted inhibition curve with a large enough effect; inconclusive = small, poorly fitted or top-dose-only effect, or another doubt; inactive = no such curve, though single readings can be large or run the other way. Where the call is inconclusive, the potency comes from a doubtful curve fit.

The molecules below were run against DNA polymerase beta (Homo sapiens) (UniProt P06746) (assay: qHTS Assay for Inhibitors of DNA Polymerase Beta). Conditions: Pol beta primer extension/strand displacement, fluorescence kinetic; activity change, negative = inhibition: at 114 µM (top of the series).
Outline: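 Pol beta (10 nM) was preincubated with compound for 15 min at room temperature. The reaction was then started with 50 nM substrate and read immediately and after a further 10 min at room temperature.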
% is scaled to controls: 0 for no effect and ±100 for the full control effect; potency is read from the fitted curve at half-maximal effect.

Row | Structure (SMILES) | activity change, negative = inhibition | Potency
1 | COc1ccc(-c2noc(CNC(=O)CCN3C(=O)[C@H]4CC=CC[C@H]4C3=O)n2)cc1 | inactive: 1.05% | –
2 | Cc1c(NC(=O)Cc2cccs2)cccc1[N+](=O)[O-] | – | active: 35.5 µM
3 | Cc1cc(C)c2cc(C(=O)N3CCc4ccccc4C3)[nH]c2c1 | – | inconclusive: 79.4 µM [inhibitor, single point]
4 | COc1cc(/C=N/NC(N)=O)ccc1OC(=O)c1ccc(C)cc1 | inactive: 39% | –
5 | CC1=CCC(C(=O)O)(C(=O)N/N=C/c2cccs2)C(c2ccc(Cl)cc2)C1 (stereo unspecified) | – | inconclusive: 89.1 µM [inhibitor, single point]
6 | COc1cccc(NC(=O)c2nn(C34CC5CC(CC(C5)C3)C4)cc2[N+](=O)[O-])c1 | – | inconclusive: 14.1 µM [inhibitor, partial curve]
7 | COc1ccccc1Nc1nc(NCc2ccco2)c2ccccc2n1 | inactive: -23.7% | –
8 | Cc1ccc(S(=O)(=O)N2C(=O)/C(=C3\SC(=S)NC3=O)c3ccccc32)cc1 | inconclusive: -32.1% [inhibitor] | –
9 | O=c1c(C(c2nnnn2C2CCCCC2)N2CCCCC2)coc2ccc(Cl)cc12 (stereo unspecified) | – | active: 100 µM
10 | O=c1c([N+](=O)[O-])c(O)c2cccc3c2n1CCC3 | – | active: 35.5 µM
11 | O=C(CCCOc1ccccc1)N1CCN(c2ccc(F)cc2)CC1 | – | active: 100 µM
12 | O=C(N/N=C/c1ccncc1)c1ccc(-n2cccc2)cc1 | – | active: 39.8 µM
13 | Cc1ccc(CNc2ccc(-c3nc(-c4ccccn4)no3)cc2[N+](=O)[O-])cc1 | – | inconclusive: 15.8 µM [inhibitor, single point]
14 | Oc1ccc(/C=N/Nc2ccc(C(F)(F)F)cn2)c(O)c1 | – | inconclusive: 35.5 µM [inhibitor, full curve, poor fit]
15 | CCOC(=O)N=S(N)(=O)c1ccc(Cl)cc1 (stereo unspecified) | – | inconclusive: 89.1 µM [inhibitor, single point]
16 | CC(=O)Nc1nnc(SCc2cc(=O)c3cccc(Cl)c3[nH]2)s1 | inactive: 5.11% | –
17 | Cc1ccc(-c2csc3ncn(CC#N)c(=O)c23)cc1 | – | inconclusive: 89.1 µM [inhibitor, single point]
18 | Cc1cc(C)n2nc(C(F)(F)F)c(-c3ccccc3)c2n1 | – | inconclusive: 22.4 µM [inhibitor, partial curve, poor fit]
19 | COCCNc1ccc(S(=O)(=O)N2CCCC2)cn1 | inactive: 14.6% | –
20 | c1coc(CN(Cc2ccco2)c2ncnc3c2oc2ccccc23)c1 | – | inconclusive: 0.316 µM [inhibitor, full curve, poor fit]
21 | Cc1oc2ccc(O)cc2c1C(=O)c1ccccc1 | inactive: -14.9% | –
22 | COc1ccccc1NC(=O)CS(=O)(=O)c1cn(CC(=O)N2CCCC2)c2ccccc12 | – | inconclusive: 89.1 µM [inhibitor, single point]
23 | CC(C)(C)S(=O)(=O)/C(C#N)=C/c1sccc1C1OCCO1 | – | inconclusive: 25.1 µM [inhibitor, partial curve]

Row | Structure (SMILES) | activity change, negative = inhibition | Potency
24 | S=c1[nH]nc(-c2cc(-c3ccco3)[nH]n2)n1-c1cccc2ccccc12 | – | active: 25.1 µM
25 | O=C1NN(c2ccccc2)C(=O)/C1=C\c1cccc(OC(=O)c2cccs2)c1 | – | active: 28.2 µM
26 | Cc1ccc(OCC(=O)Nc2ccc(S(=O)(=O)Nc3cc(C)nc(C)n3)cc2)cc1 | – | inconclusive: 0.398 µM [inhibitor, full curve, poor fit]
27 | O=c1c2cc(N3CCOCC3)ccc2[nH]c(=S)n1Cc1ccco1 | – | inconclusive: 44.7 µM [inhibitor, partial curve]
28 | Cc1ccc2c(C(=O)CN3CCSCC3)c(C)[nH]c2c1 | inactive: -14.4% | –
29 | O=C(O)c1ccc(-n2cccc2/C=C2/NC(=O)N(c3ccccc3)C2=O)cc1 | inconclusive: -109% [inhibitor] | –
30 | CC(=O)Nc1cccc(NC(=O)CSc2ccc(-c3cccnc3)nn2)c1 | – | active: 2.82 µM
31 | COC(=O)c1cc(OC)c(OC)cc1NC(=O)CCc1ccc(C)o1 | – | inconclusive: 79.4 µM [inhibitor, single point]
32 | COc1ccc(OCc2ccc(-c3nc(C#N)c(N4CCN(c5cccc(Cl)c5)CC4)o3)o2)cc1 | – | inconclusive: 89.1 µM [inhibitor, single point]
33 | O=C1NC(c2ccccc2)(C(F)(F)F)SC2=NCCCN12 (stereo unspecified) | – | inconclusive: 89.1 µM [inhibitor, single point]
34 | CCOc1ccc(NC(=O)c2c(NCc3sccc3C)sc3c2CCCCC3)cc1 | – | inconclusive: 50.1 µM [inhibitor, partial curve]
35 | CCCNC(=S)N1CCN(c2nc(-c3ccc(C)cc3)cs2)CC1 | – | inconclusive: 1.26 µM [inhibitor, full curve, poor fit]
36 | CC1(C)CCCC2=C1CC1C(=O)N(O)C(=O)C1C2 (stereo unspecified) | – | inconclusive: 3.98 µM [inhibitor, full curve]
37 | Cc1c(NC2(C#N)CCCCC2)c(=O)n(-c2ccccc2)n1C | – | inconclusive: 1.58 µM [inhibitor, full curve]
38 | COc1ccc(-c2nn(-c3ccccc3)cc2/C=C/C(=O)O)cc1[N+](=O)[O-] | – | inconclusive: 0.316 µM [inhibitor, full curve]
39 | O=C(COc1ccc(F)cc1)N1CCC(Cc2ccccc2)CC1 | – | inconclusive: 79.4 µM [inhibitor, single point]
40 | COc1ccc(C(=O)CSc2nc3ncccc3[nH]2)cc1OC | – | inconclusive: 0.251 µM [inhibitor, full curve]
41 | Cn1c(N)c(C(=O)COC(=O)c2cc(-c3ccco3)nc3ccccc23)c(=O)n(C)c1=O | – | active: 15.8 µM
42 | CCC1=NN2C(=N)/C(=C/c3cc(C)n(Cc4ccccc4)c3C)C(=O)N=C2S1 | – | inconclusive: 79.4 µM [inhibitor, single point]
43 | C=CCNC(=S)NNC(=O)c1cccnc1 | inconclusive: -36.9% [inhibitor] | –
44 | Cc1cc2nc(C)n(CCCNC(=O)Nc3cccc4ccccc34)c2cc1C | – | active: 39.8 µM
45 | COc1cc(Cl)c(C)cc1NC(=O)Cn1ncc2c(=O)oc3ccccc3c21 | inactive: 29.6% | –
46 | CCCOC(=O)/C(=C\C=C\c1ccco1)NC(=O)c1ccccc1 | – | inconclusive: 22.4 µM [inhibitor, full curve, poor fit]

Numbers 11 through 13 from above:
Row | Structure (SMILES) | activity change, negative = inhibition | Potency
11 | O=C(CCCOc1ccccc1)N1CCN(c2ccc(F)cc2)CC1 | – | active: 100 µM
12 | O=C(N/N=C/c1ccncc1)c1ccc(-n2cccc2)cc1 | – | active: 39.8 µM
13 | Cc1ccc(CNc2ccc(-c3nc(-c4ccccn4)no3)cc2[N+](=O)[O-])cc1 | – | inconclusive: 15.8 µM [inhibitor, single point]
